Test results: US5130117A, “Radiohalogenated benzazepine derivatives and method of imaging dopamine receptors therewith” (Trustees of the University of Pennsylvania, priority 1991, dated 1992)

Chains of the proteins cited; added tags and fusions are not shown.
UniProt P18901, whole entry: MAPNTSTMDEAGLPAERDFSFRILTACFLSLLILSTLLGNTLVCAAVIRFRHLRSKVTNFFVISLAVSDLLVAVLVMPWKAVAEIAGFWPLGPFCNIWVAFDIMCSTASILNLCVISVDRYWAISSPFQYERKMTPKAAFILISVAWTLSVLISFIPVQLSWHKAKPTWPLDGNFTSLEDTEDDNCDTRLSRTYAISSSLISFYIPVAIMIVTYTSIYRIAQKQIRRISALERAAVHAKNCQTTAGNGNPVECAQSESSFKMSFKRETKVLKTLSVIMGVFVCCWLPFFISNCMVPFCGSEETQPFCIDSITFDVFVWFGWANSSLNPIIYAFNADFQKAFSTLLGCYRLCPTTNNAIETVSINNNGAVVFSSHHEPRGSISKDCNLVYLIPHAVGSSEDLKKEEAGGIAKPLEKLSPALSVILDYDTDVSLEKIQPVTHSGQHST

Target: T1, dopamine D-1 receptor (rat striatal membranes) (Rattus norvegicus, UniProt P18901)
T1 construct: Striatal tissues were excised, pooled and homogenized; from tissue; host or cells: striatum of male Sprague-Dawley rats
Experiment: Competition: inhibition of [^125 I]TISCH binding to rat striatal membranes
Conditions: read-out: ki (mean + SEM)
Method: Male Sprague-Dawley rats (200-250g) were decapitated, and the brains were removed and placed in ice. Striatal tissues were excised, pooled and homogenized in 100 volumes(w/v) of ice-cold Tris-HCl buffer (50 mM), pH 7.4. The homogenates were centrifuged at 20,000×g for 20 min. The resultant pellets were rehomogenized in the same buffer and centrifuged again. The final pellets were resuspended in assay buffer containing: 50 mM Tris buffer pH 7.4, 120 mM NaCl, 5 mM KCl, 2mM CaCl2 and 1 mM MgCl2.
The binding assays were performed by incubating 50 μl of tissue preparations containing 40-60μg of protein with appropriate amounts of [^125 l]FISCH ligand and competitors in a total volume of 0.2 ml of the assay buffer. After an incubation period of 20 min at 37° C. (with stirring), the samples were rapidly filtered in the cell harvester (Brandel M-24R) under vacuum through Whatman GF/B glass fiber filters pretreated with 0.2% protamine sulfate and washed with 3×5ml of cold (4° C.) 50 mM Tris-HCl buffer, pH 7.4. […] The filters were counted in a gamma counter (Beckman 5500) at an efficiency of 70%.
Both Scatchard and competition experiments were analyzed using the iterative non-linear least squares curve-fitting program LIGAND.

Ki: > 3 µM
Compound: CC(C)NC[C@H](O)COc1cccc2ccccc12 (racemic) [Propanolol, reference compound]
